Results as given in the supplement of paper PMC6411743.
± gives the standard deviation of the averaged measurements. This is one part of the list.

Protein sequences, listed by entry. Tags and fused reporters are not part of them. Lines headed by an entry give the natural chain unless they say otherwise; changes in a name come on top.
UniProt Q00610: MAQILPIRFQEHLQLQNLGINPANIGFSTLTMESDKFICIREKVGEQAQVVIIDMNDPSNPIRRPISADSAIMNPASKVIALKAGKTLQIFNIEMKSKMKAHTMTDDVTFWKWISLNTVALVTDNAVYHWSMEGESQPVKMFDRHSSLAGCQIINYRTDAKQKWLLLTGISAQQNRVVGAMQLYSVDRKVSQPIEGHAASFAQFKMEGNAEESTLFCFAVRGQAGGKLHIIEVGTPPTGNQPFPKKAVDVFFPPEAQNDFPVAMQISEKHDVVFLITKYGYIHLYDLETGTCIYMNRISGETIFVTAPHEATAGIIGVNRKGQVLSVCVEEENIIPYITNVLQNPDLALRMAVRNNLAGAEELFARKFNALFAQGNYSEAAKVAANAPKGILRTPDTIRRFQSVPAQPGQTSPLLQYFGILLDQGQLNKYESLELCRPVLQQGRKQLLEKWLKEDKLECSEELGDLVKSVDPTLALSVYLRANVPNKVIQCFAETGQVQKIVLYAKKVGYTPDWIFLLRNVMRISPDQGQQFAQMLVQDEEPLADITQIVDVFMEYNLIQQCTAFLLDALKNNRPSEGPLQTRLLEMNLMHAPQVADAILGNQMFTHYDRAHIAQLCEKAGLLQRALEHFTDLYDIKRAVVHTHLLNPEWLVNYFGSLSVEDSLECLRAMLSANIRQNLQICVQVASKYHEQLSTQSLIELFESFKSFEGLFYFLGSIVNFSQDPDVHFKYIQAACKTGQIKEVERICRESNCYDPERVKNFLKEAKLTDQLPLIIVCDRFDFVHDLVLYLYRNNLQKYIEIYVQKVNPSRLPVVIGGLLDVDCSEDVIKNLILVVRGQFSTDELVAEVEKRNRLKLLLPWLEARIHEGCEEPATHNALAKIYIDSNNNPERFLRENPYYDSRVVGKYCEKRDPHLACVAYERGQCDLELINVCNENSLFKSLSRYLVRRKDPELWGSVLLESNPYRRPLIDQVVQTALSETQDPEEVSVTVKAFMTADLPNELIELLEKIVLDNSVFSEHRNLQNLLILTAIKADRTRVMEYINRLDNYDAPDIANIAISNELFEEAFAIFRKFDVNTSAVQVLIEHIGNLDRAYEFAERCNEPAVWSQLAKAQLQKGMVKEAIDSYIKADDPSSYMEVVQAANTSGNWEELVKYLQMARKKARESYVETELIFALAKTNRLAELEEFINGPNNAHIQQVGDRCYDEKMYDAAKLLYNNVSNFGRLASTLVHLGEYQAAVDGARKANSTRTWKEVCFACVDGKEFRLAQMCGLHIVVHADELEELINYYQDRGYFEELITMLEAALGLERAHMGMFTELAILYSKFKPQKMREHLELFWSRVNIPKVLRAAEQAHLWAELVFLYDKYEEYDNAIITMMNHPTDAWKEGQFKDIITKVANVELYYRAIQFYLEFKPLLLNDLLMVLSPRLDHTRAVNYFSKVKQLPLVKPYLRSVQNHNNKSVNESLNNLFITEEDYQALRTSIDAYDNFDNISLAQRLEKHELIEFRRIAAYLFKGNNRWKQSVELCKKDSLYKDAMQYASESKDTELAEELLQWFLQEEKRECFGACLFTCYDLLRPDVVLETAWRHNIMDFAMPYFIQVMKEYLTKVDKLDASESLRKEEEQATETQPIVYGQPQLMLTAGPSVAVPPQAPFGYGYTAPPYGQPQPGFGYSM
UniProt Q9BQ39: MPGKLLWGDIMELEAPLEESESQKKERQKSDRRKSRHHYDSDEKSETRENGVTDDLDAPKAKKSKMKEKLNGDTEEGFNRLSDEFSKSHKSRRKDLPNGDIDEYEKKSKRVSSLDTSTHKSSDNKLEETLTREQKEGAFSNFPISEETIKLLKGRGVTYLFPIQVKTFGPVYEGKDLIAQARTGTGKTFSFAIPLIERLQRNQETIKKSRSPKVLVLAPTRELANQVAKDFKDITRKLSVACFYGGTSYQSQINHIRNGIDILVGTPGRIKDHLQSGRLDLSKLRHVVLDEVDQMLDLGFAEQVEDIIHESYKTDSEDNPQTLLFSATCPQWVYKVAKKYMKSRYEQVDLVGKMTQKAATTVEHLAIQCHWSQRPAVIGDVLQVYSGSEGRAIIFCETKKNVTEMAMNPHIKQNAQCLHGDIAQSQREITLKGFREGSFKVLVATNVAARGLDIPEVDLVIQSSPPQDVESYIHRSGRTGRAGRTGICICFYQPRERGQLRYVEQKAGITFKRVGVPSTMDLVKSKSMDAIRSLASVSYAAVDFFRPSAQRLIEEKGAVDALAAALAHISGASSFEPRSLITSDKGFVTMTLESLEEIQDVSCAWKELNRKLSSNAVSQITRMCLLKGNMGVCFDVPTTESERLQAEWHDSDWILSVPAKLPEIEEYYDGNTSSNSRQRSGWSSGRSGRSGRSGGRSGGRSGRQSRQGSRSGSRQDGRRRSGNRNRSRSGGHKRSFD
UniProt Q8IWB9: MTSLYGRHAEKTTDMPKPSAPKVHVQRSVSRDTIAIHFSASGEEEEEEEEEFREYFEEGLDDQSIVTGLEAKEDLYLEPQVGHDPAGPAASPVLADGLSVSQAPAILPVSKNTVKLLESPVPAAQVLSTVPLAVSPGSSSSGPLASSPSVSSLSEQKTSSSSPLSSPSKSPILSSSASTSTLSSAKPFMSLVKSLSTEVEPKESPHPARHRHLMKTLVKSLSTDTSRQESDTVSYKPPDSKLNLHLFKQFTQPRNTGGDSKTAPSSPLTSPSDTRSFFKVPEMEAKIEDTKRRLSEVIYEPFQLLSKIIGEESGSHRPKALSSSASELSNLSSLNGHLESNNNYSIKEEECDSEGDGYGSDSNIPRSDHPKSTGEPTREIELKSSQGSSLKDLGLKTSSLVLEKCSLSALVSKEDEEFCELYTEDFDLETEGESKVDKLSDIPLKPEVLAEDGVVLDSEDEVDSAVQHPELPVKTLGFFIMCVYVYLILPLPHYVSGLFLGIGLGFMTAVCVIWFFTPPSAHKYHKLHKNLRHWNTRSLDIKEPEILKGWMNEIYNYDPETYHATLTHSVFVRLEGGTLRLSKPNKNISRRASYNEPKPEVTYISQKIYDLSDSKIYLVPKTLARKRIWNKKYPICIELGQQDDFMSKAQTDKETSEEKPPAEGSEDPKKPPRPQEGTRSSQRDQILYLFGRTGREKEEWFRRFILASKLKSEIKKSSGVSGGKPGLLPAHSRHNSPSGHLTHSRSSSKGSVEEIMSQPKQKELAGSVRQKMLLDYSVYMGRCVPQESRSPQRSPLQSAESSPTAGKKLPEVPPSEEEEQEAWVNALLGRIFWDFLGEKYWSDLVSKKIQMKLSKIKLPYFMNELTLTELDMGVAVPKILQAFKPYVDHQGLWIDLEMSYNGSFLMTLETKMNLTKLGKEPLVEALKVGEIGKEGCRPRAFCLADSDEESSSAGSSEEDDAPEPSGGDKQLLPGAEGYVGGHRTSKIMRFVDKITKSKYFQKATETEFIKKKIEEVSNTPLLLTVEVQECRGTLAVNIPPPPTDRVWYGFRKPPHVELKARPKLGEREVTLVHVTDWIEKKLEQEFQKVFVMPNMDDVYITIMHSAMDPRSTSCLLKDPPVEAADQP
UniProt P57105: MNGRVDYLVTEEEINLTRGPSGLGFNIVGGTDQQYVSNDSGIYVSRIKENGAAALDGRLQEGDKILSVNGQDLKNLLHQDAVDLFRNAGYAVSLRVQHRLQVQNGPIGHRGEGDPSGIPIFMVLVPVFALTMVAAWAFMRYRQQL

Compound: Nc1nc2c(ncn2[C@@H]2O[C@H](COP(=O)(O)OP(=O)(O)OP(=O)(O)O)[C@@H](O)[C@H]2O)c(=O)[nH]1 [guanosine triphosphate]
Assay: NP40-soluble protein abundance relative to vehicle (solubility fold change) (ratio); higher = more soluble protein in presence of GTP
Description: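 Solubility proteome profiling in Jurkat crude lysate. Lysate was treated with Mg-GTP (0.1-10 mM) for 10 min at room temperature and 3 min at 37 °C, then solubilised with 0.8% NP40 and benzonase, followed by ultracentrifugation. Proteins were quantified by TMT10 LC-MS/MS; the value is the NP40-soluble abundance relative to the NP40-processed vehicle, from 3 independent experiments.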

Target	NP40-soluble protein abundance (concentration: 0.1mM)	NP40-soluble protein abundance (concentration: 0.5mM)	NP40-soluble protein abundance (concentration: 1mM)	NP40-soluble protein abundance (concentration: 2mM)	NP40-soluble protein abundance (concentration: 4mM)	NP40-soluble protein abundance (concentration: 6mM)	NP40-soluble protein abundance (concentration: 8mM)	NP40-soluble protein abundance (concentration: 10mM)
A0A087WVQ6|Q00610 and related entries (UniProt Q00610)	1.04 ± 0.042	1.09 ± 0.075	1.01 ± 0.045	1.02 ± 0.067	0.991 ± 0.049	0.982 ± 0.057	0.943 ± 0.017	0.881 ± 0.052
A0A087WVC1|Q9BQ39 (UniProt Q9BQ39)	1.19 ± 0.051	1.25 ± 0.055	1.4 ± 0.089	1.89 ± 0.23	2.57 ± 0.26	3.29 ± 0.3	3.85 ± 0.56	4.45 ± 0.47
A0A087WVA8|Q8IWB9 and related entries (UniProt Q8IWB9)	0.983 ± 0.079	0.892 ± 0.076	0.95074 ± 8.4e-05	0.958 ± 0.17	0.946 ± 0.078	0.9 ± 0.058	0.932 ± 0.017	0.89 ± 0.064
A0A024R4M0|P46781 (UniProt P46781)	0.943 ± 0.11	0.994 ± 0.17	0.912 ± 0.21	0.909 ± 0.28	0.821 ± 0.33	0.712 ± 0.28	0.601 ± 0.2	0.66 ± 0.25
A0A087WUM0 (UniProt P57105)	0.917 ± 0.082	0.889 ± 0.099	0.932 ± 0.06	0.889 ± 0.083	0.885 ± 0.1	0.89 ± 0.11	0.881 ± 0.15	0.885 ± 0.099
